This is an account of results in publication PMC12007708.

These are yes or no findings as the source states them, for the method shown. In cells and extracts the contact can be indirect. Binding can be weak; no strength is given. Where a sequence is shown, tags or fusion partners need not be part of it.

The target of the test is T1, FLAG-tagged full-length PF3D7_0811400 (P. falciparum) (UniProt C0H4U0).
T1 sequence: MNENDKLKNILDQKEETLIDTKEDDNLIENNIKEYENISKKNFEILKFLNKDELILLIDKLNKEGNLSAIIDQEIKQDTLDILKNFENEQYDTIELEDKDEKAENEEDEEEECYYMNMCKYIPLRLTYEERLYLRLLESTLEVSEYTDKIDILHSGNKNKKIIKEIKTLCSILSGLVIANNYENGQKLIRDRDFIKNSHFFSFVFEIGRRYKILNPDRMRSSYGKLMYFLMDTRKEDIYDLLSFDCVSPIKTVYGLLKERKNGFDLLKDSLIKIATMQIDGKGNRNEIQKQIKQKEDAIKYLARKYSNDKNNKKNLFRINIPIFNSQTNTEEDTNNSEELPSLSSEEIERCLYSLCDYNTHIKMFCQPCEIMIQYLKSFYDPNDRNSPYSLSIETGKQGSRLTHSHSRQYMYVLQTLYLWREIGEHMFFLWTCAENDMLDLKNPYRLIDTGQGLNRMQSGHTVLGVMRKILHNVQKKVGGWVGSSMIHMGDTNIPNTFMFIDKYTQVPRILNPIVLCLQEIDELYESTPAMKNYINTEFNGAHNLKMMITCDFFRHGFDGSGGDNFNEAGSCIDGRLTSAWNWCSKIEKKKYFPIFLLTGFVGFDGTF
As to the kind of experiment: co-IP; Myc-PfRbx1 co-expressed with FLAG-tagged proteins in HEK293T cells; anti-FLAG beads; anti-myc and anti-FLAG immunoblot. (In general: In western blotting, separated proteins are transferred to a membrane and probed.)

For the substance Myc-tagged PfRbx1 (P. falciparum), the binding result is reported as “binds”.
